Results: the supplement of paper PMC6411743
± gives the standard deviation of the averaged measurements. The entries are a selection whose mix differs from that of the whole data set. Small differences around the control level are noise.

Protein sequences, listed by entry. Tags and fused reporters are not part of them. Lines headed by an entry give the natural chain unless they say otherwise; changes in a name come on top.
UniProt Q6PFW1: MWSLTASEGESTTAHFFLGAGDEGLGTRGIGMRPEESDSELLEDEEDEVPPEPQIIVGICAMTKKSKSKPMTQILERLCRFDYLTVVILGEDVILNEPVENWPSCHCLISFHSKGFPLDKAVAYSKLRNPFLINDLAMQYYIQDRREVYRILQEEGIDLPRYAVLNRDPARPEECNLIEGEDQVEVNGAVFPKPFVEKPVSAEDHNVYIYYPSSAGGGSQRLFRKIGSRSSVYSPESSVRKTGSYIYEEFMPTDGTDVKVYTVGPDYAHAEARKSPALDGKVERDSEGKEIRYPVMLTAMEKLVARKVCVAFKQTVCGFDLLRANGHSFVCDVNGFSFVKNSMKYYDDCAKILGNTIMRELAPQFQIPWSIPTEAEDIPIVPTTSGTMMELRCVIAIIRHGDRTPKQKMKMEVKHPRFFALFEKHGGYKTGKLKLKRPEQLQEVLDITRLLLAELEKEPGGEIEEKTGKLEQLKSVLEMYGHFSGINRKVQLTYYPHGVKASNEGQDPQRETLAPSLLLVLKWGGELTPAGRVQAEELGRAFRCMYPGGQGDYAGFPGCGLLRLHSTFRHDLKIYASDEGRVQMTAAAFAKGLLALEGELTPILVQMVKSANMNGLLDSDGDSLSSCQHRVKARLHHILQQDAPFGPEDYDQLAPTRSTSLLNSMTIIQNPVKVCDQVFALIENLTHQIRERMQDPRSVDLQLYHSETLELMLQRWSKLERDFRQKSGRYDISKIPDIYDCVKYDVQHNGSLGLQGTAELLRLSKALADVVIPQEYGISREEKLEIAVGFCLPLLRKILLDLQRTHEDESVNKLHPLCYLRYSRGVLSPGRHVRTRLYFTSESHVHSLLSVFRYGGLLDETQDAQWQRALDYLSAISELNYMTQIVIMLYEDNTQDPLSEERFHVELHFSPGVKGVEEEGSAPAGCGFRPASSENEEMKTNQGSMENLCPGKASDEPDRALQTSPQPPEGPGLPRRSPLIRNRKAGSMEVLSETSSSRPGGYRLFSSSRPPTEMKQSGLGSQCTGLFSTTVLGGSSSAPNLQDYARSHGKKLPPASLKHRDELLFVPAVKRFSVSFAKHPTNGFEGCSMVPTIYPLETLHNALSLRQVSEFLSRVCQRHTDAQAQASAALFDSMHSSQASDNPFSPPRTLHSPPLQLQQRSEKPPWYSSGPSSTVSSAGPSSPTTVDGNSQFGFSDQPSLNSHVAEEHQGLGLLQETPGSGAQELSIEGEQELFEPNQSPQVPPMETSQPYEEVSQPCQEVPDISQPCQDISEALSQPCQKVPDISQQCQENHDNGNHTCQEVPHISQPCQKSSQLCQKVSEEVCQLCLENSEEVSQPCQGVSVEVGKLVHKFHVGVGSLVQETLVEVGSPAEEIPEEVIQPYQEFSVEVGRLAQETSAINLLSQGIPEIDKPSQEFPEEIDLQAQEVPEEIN
UniProt Q8N3U4: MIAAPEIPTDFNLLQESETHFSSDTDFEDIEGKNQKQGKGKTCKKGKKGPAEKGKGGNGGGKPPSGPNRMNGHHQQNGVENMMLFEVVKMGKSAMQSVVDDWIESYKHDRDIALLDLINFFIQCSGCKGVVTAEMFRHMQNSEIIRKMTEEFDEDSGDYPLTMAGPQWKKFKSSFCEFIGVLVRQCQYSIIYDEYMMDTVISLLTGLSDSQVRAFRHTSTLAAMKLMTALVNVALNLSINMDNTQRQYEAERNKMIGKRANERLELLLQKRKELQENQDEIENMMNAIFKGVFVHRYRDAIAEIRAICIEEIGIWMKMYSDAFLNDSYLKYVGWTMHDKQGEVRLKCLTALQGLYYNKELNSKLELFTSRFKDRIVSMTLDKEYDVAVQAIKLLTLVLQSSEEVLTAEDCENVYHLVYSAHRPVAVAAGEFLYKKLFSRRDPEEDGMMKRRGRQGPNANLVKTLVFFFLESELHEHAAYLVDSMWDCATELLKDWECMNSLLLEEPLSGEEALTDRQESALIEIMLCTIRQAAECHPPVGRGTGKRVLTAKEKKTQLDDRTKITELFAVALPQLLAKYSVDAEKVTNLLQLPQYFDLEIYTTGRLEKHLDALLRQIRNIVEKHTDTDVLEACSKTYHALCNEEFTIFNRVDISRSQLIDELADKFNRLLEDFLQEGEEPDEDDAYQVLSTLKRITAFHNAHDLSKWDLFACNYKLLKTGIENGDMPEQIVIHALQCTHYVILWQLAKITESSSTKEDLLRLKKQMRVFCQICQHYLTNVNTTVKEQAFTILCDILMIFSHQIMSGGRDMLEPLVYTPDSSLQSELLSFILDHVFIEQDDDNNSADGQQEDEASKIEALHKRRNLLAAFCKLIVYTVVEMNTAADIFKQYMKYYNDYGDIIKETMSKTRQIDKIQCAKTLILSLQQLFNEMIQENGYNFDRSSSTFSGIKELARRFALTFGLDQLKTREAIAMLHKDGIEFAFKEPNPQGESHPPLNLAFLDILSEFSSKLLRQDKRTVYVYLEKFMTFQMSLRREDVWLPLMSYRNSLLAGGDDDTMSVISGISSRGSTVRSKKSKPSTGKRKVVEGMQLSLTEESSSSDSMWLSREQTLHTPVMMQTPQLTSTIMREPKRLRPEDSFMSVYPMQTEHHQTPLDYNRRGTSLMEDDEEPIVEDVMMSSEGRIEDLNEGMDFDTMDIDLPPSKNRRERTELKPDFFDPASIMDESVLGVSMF
UniProt O75832: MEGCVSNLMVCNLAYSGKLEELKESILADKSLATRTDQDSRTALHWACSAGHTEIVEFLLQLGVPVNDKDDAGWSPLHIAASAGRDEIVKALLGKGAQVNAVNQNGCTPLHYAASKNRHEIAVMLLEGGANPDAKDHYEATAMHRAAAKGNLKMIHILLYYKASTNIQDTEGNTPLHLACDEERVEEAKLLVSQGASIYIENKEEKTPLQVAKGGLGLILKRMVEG
UniProt P41732: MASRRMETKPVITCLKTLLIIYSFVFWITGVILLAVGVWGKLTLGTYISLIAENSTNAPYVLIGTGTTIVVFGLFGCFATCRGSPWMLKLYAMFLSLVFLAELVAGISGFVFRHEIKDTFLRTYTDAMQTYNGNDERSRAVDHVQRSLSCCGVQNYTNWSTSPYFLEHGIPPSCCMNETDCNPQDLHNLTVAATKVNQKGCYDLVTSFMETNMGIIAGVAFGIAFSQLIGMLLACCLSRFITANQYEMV
UniProt P55212: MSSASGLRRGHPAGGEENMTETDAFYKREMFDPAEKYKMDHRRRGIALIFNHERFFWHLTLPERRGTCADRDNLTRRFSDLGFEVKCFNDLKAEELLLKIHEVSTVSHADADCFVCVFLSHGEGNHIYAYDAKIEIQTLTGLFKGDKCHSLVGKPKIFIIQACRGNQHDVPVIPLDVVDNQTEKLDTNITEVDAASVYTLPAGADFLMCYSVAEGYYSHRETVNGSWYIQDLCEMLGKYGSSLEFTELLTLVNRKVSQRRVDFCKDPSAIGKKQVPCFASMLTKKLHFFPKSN
UniProt Q9P2W9: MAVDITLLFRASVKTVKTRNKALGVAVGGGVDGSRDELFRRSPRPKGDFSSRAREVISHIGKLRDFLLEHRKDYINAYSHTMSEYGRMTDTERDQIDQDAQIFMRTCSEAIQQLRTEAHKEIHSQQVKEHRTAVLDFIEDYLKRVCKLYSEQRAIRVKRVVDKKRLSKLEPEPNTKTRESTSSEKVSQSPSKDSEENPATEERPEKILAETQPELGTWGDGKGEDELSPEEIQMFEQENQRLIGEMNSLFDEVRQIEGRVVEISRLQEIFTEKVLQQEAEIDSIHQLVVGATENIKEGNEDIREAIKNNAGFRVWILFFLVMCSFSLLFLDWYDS
UniProt A9UHW6: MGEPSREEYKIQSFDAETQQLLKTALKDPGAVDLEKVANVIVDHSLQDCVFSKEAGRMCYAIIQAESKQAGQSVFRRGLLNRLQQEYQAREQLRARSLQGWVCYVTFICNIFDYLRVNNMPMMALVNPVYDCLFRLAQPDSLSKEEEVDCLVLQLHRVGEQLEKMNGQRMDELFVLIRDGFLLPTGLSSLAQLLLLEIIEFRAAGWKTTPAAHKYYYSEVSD
UniProt Q96JI7: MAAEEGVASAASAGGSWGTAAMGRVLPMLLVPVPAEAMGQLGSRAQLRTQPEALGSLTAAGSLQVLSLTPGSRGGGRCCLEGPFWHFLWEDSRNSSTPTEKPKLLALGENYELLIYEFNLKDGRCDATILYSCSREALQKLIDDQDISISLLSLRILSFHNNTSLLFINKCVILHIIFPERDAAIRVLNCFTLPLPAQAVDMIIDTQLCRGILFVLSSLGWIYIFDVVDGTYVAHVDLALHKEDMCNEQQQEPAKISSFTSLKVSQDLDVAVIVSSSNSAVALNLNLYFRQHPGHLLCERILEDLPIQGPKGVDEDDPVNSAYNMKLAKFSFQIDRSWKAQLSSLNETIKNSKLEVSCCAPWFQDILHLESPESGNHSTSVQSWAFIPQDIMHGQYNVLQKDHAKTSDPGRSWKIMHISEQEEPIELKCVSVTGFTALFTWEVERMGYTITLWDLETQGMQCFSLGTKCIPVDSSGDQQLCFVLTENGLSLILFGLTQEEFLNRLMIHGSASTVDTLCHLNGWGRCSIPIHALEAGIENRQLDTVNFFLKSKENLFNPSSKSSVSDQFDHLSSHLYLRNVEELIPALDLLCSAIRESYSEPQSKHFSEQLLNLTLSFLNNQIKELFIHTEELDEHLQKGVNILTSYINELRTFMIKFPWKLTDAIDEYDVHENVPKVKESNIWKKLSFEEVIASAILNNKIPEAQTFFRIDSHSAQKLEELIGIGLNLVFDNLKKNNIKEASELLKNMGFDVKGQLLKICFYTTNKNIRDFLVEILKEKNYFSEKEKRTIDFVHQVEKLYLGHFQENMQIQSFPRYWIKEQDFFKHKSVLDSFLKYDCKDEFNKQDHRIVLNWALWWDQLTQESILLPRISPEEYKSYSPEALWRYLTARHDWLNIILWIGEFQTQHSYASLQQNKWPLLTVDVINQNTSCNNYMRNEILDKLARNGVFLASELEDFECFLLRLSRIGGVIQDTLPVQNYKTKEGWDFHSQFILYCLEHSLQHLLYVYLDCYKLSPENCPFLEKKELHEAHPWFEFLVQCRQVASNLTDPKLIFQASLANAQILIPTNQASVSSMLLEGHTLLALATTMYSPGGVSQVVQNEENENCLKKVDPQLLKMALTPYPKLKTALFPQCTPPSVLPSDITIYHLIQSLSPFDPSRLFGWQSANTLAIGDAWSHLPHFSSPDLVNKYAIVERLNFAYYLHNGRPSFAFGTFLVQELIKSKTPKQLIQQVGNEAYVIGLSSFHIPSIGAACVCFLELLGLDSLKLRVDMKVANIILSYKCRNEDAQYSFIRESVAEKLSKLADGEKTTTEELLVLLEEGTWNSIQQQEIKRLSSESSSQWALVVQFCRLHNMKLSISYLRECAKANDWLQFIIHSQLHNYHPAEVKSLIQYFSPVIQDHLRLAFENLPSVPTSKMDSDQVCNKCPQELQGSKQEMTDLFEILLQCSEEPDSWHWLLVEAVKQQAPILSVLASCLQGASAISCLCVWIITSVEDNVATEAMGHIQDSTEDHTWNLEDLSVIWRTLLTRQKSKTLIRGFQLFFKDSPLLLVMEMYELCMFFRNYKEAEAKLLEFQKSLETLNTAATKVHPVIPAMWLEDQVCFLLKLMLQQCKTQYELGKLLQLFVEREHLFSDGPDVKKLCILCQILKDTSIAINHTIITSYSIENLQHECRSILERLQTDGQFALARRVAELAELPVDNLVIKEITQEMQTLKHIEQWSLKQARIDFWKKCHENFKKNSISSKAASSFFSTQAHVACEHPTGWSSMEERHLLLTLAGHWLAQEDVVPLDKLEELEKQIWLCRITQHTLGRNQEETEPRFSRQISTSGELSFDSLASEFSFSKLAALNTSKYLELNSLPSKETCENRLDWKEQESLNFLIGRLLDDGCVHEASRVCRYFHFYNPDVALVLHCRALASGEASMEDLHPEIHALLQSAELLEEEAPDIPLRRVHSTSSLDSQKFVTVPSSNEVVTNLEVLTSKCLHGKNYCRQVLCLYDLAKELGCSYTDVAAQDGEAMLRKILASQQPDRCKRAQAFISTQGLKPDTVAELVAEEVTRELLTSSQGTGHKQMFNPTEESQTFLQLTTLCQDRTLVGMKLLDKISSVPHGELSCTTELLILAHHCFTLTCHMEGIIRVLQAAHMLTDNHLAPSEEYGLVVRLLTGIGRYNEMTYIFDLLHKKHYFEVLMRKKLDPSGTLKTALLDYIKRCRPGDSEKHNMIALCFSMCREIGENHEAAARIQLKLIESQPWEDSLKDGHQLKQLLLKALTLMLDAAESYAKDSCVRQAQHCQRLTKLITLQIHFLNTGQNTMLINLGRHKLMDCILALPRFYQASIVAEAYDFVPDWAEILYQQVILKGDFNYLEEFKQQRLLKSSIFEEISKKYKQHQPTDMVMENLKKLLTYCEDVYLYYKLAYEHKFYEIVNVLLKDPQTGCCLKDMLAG

Compound: Nc1ncnc2c1ncn2[C@@H]1O[C@H](COP(=O)(O)OP(=O)(O)NP(=O)(O)O)[C@@H](O)[C@H]1O [adenylyl imidodiphosphate]
Assay: NP40-soluble protein abundance relative to vehicle (solubility fold change) (ratio); higher = more soluble protein in presence of AMP-PNP
Outline: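 Jurkat crude lysate (Dounce-homogenised) was treated with eight concentrations from 0.1 to 10 mM for 10 min at room temperature, then 3 min at 37 °C. It was solubilised with 0.8% NP40 and benzonase (60 min, 4 °C) and ultracentrifuged, and the supernatant was TMT-labelled for LC-MS/MS. Intensities were vsn-normalised, and the value is the fold change against the NP40-processed vehicle per replicate, from three independent experiments.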

Target	NP40-soluble protein abundance (concentration: 0.1mM)	NP40-soluble protein abundance (concentration: 0.5mM)
D6RG18 and related entries (UniProt P51946)	1.03 ± 0.018	1.05 ± 0.054
B4E0E3 and related entries (UniProt Q9H6X4)	0.995 ± 0.051	0.99 ± 0.048
A2RUF3 and related entries (UniProt O75044)	0.994 ± 0.023	0.982 ± 0.02
B7WPL9 and related entries (UniProt Q6PFW1)	1 ± 0.011	0.9894 ± 0.0074
B1AMT0 and related entries (UniProt Q8N3U4)	1.02 ± 0.06	0.985 ± 0.084
B1AQP1 and related entries (UniProt P22415)	1.03 ± 0.066	1.03 ± 0.096
B2RA97 and related entries (UniProt Q9Y5N5)	1 ± 0.041	1.01 ± 0.04
LIPT2 (UniProt A6NK58)	1.002 ± 0.0097	0.9981 ± 0.0071
B1AJY7 and related entries (UniProt O75832)	0.978 ± 0.043	0.998 ± 0.057
B4DDG0 and related entries (UniProt P41732+B4E171+B4DDG0)	0.938 ± 0.021	0.967 ± 0.014
D6RHU3 and related entries (UniProt P55212)	1.01 ± 0.038	0.977 ± 0.069
B4E1G1 and related entries (UniProt Q9BUN8)	0.9824 ± 0.0037	0.999 ± 0.014
D6R9C6 and related entries (UniProt P27707)	1.01 ± 0.033	1.04 ± 0.045
B1AKL4 and related entries (UniProt Q9NRA8)	0.991 ± 0.027	0.999 ± 0.058
D4PHA4 and related entries (UniProt Q86WP2)	0.955 ± 0.021	1.008 ± 0.0058
D6RF48 and related entries (UniProt Q9P2W9)	1 ± 0.021	0.981 ± 0.012
SMCHD1 (UniProt A6NHR9)	1 ± 0.012	0.997 ± 0.037
MIF4GD (UniProt A9UHW6)	0.992 ± 0.044	0.988 ± 0.042
A6NEM2 and related entries (UniProt P51610)	0.994 ± 0.026	1.01 ± 0.042
C4B7M2 and related entries (UniProt Q96JI7)	0.973 ± 0.038	0.986 ± 0.052
E2QRN4 and related entries (UniProt Q5BKZ1)	1.05 ± 0.073	1.01 ± 0.076
B3KQH5 and related entries (UniProt Q9UL03)	1.02 ± 0.019	0.981 ± 0.027
B4DEN4 and related entries (UniProt Q8WV99)	0.982 ± 0.04	0.981 ± 0.038

Complete entries from above:
B4DEN4 and related entries (UniProt Q8WV99) as listed: NP40-soluble protein abundance (concentration: 0.1mM): 0.982 ± 0.04; NP40-soluble protein abundance (concentration: 0.5mM): 0.981 ± 0.038
B1AMT0 and related entries (UniProt Q8N3U4) as listed: NP40-soluble protein abundance (concentration: 0.1mM): 1.02 ± 0.06; NP40-soluble protein abundance (concentration: 0.5mM): 0.985 ± 0.084
